Read-outs that look alike come from different tables or passages of the source. No constants are given. Whether binding was seen depends on the method and setting. Binding seen in cells or lysates may run through a third protein. These calls come from enrichment with a bait or labelling near it, and not all partners need be listed. Values belong to the molecule of their own block, whether it stands above or below them.
How the values were obtained:
[1] = biological target: T1, RSR-2, the Caenorhabditis elegans ortholog of human SRm300/SRRM2 (C. elegans (endogenous in N2 worms)) (UniProt Q9U213); assay: affinity purification with mass spectrometry; RSR-2-containing complexes immunopurified with anti-RSR-2 antibody from two biological replicates of wild type mixed-stage worms; eluate precipitated with acetone, digested with trypsin (MudPIT), LC-MS/MS; control unspecific rabbit IgG
T1 sequence: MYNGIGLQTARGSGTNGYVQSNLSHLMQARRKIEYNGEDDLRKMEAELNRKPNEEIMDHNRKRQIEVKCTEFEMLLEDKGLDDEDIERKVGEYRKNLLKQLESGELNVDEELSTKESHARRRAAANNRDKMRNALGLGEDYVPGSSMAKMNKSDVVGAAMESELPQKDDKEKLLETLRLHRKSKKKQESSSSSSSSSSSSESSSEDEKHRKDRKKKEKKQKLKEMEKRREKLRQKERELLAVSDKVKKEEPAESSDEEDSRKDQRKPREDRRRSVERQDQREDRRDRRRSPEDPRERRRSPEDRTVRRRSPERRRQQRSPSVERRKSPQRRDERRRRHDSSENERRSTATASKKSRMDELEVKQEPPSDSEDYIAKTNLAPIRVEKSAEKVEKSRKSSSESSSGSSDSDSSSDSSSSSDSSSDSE

Amino acid sequences for entries named in this document (tags omitted). A change or cut given only in a name is not applied to a line headed by its entry.
UniProt P0CG71: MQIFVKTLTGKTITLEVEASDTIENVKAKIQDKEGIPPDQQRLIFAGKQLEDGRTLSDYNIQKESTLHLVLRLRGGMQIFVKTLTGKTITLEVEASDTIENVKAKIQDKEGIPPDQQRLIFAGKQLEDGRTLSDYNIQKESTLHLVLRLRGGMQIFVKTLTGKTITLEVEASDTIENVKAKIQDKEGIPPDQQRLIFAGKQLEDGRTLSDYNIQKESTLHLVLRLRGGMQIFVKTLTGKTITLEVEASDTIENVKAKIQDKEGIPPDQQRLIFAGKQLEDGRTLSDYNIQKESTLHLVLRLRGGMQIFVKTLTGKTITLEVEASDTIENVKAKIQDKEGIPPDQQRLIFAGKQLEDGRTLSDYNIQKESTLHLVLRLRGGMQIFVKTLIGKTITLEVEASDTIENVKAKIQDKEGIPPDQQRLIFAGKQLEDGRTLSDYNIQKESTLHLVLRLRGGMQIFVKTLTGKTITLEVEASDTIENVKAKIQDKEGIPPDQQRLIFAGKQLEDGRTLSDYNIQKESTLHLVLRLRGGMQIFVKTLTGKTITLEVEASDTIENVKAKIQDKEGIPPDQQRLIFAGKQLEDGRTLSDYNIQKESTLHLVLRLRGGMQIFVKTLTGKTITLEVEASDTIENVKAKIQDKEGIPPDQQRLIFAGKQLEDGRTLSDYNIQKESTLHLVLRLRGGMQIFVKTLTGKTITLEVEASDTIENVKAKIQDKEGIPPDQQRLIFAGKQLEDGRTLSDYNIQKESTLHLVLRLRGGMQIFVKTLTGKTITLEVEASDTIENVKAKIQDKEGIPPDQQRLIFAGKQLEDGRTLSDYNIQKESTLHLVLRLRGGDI
UniProt Q10013: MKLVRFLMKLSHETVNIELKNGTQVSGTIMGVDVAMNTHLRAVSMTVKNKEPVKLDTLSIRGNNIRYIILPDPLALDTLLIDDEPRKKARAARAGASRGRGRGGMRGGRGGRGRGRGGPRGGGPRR
UniProt P09446: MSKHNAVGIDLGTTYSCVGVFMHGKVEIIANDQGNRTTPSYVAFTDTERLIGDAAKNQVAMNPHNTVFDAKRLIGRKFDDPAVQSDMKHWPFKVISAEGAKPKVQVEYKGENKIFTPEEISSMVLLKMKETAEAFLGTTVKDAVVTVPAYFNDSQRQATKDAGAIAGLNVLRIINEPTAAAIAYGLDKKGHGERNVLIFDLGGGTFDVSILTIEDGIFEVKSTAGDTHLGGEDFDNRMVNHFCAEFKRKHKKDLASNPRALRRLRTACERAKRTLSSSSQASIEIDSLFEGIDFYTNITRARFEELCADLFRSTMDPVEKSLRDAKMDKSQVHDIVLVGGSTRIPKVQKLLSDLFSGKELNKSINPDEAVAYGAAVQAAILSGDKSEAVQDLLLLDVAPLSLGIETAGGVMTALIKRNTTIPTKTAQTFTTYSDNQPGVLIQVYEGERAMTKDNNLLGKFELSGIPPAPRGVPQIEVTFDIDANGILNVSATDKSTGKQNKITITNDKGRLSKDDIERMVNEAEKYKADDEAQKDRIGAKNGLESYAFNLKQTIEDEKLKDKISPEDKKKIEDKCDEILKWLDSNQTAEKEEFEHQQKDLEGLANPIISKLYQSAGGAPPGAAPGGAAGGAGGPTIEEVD
UniProt P18334: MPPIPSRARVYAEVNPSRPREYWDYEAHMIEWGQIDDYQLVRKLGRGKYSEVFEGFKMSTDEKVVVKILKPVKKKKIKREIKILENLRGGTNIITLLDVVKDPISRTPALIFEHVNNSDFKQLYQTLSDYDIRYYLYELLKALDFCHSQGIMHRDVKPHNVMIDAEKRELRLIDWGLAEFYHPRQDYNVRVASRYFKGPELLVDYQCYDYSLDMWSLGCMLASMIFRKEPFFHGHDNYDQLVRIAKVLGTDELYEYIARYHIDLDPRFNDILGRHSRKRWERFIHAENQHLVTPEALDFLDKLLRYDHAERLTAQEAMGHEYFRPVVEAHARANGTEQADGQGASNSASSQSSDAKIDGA
UniProt P91918: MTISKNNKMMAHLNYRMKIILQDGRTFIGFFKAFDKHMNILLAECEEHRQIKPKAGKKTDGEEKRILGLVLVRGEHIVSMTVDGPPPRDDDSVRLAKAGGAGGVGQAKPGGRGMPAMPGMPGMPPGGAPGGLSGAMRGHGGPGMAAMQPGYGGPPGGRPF

[2] = biological target: T1, RSR-2, the Caenorhabditis elegans ortholog of human SRm300/SRRM2 (C. elegans (endogenous in N2 worms)); assay: as above; remark: listed apart in the source

binding [1]: binds
Molecule: Polyubiquitin-A (ubq-1) (from UniProt P0CG71)

binding [1]: binds
Molecule: Probable small nuclear ribonucleoprotein Sm D1 (snr-3) (from UniProt Q10013 1-126)

binding [1]: binds
Molecule: Heat shock 70 kDa protein A (hsp-1) (from UniProt P09446 1-640)

binding [1]: binds
Molecule: Casein kinase II subunit alpha (kin-3) (from UniProt P18334 1-360)

binding [1]: binds
Molecule: Probable small nuclear ribonucleoprotein-associated protein B (snr-2) (from UniProt P91918 1-160)

binding [2]: binds
B1: rRNA 2′-O-methyltransferase fibrillarin (fib-1) (protein, UniProt Q22053 1-352)
chain: MGRPEFNRGGGGGGFRGGRGGDRGGSRGGFGGGGRGGYGGGDRGSFGGGDRGGFRGGRGGGDRGGFRGGRGGGDRGGFGGRGSPRGGFGGRGSPRGGRGSPRGGRGGAGGMRGGKTVVVEPHRLGGVFIVKGKEDALATKNMVVGESVYGEKRVSVDDGAGSIEYRVWNPFRSKLAASIMGGLENTHIKPGTKLLYLGAASGTTVSHCSDVVGPEGIVYAVEFSHRSGRDLLGVAKKRPNVVPIVEDARHPHKYRMLVGMVDVIFSDVAQPDQARIVALNAQNFLRNGGHAVISIKANCIDSTAEPEAVFAGEVNKLKEEKFKPLEQVTLEPYERDHAVVVAVYRPVKGKKV

binding [2]: binds
B2: Nucleolar complex protein 2 homolog (pro-2) (protein, UniProt O17580 1-715)
chain: MKLLKKPAGLKKRKVISKRIKIEKKPSSEDEGSSDEEVPKLDGEGSLDGSEDEDDGTVTVEKGGVKKHKLDLEKLKQSDPEFFKFLQQEDADLLNMEDDGDDDEDDDEDDEDEEEEESDDDEDDEEDDDKTKIKKIRKPKIKSDNSGRLIVDSNVYSYLQQVLVLDDETSTPTNPSDVRMAVDVFVACVARVGADIEAPKYVINEQSIFEAVVRMCFQAMPDILKRLLKAKPEGDKVLFSKTAIKKYQTYVRTYLHAMIVFLNEVQTTEVLIATIKAMTRLVDLYAHFSRMSKLLIKAVVRIWSRKTLECRLPAFVCMNLLVKNYPQHFVPLYKTAYVAFVANSKIVTNETWPLLQFMHRTFAELTILNPEQAYKYAFVYIRQTAVHLRNAMISKGRKDLIFSIYNWQMMQCMYMWVRVIAKAHSVNGAEQIGELVYPLIQVIVGIFKLCNAPTFLPLRLHCCQLLIQLQASCTNYIPILQVSCDCLEELARELKSKPKPVKGAVKLPDIECTLKCSSQFSDLPQWRKVISEHVFRTMMQSAHLLASQAAFPDVVLPINHRISAILETMKNGDHAHLFRGFQTKLKEHSRFVLDVLARKSVDINDEMQVRAVRFDLNNPDSPIKTFYRQWEKVWKMKERSAVENSKKDDKKKKKEEEAAAAKKRKPNETVEDEDDVKPEVSKAKRKRIKIGAAAKKADASVPDQFADMSMWSDED

binding [2]: binds
B3: Transcriptional cofactor T27F2.1 (skp-1) (protein, UniProt Q22836 1-535)
chain: MSMKLRDILPAPVAADEAASQIRRDPWFGGRDNEPSAALVSKEPPPYGKRTSFRPRGPEDFGDGGAFPEIHVAQFPLGLGLGDMRGKPENTLALQYGTDGKLQHDAIARIGHVKDKVVYSKLNDMKAKTWNEDDDDIQKPDDDAVIDATEKTRMALEKIVNSKVASALPVRHADKLAPAQYIRYTPSQQNGAAGSQQRIIRMVEEQKDPMEPPKFKINQKIPRAPPSPPAPVMHSPPRKMTAKDQNDWKIPPCISNWKNPKGFTVGLDKRLAADGRGLQQTHINENFAKLADALYIADRKAREEVETRAQLERRVAQNKKSEQEAKMAEAAAKARQERSAMRRKDDEDDEQVKVREEIRRDRLDDIRKERNIARSRPDKADKLRKERERDISEKIVLGLPDTNQKRTGEPQFDQRLFDKTQGLDSGAMDDDTYNPYDAAWRGGDSVQQHVYRPSKNLDNDVYGGDLDKIIEQKNRFVADKGFSGAEGSSRGSGPVQFEKDQDVFGLSSLFEHTKEKKRGGDGGDSRGESKRSRRD

binding [2]: binds
B4: Lysine-specific demethylase rbr-2 (rbr-2) (protein, UniProt Q23541 1-1477)
chain: MRARRQENSISTPSAPSTSTSPRKKASIGNSRSKNHGSKMEMYDQFYKKFVRPPMAPIYYPTEEEFSDPIEYVAKIRHEAEKFGVVKIVPPANFKPPFAIDKEAFTFRPRTQKLNEVEAIVKEKHTFIDRLINFNRYSGLTFEFPVDRDGNIVDLYRLHRIVQNFGGCEEVNEDEKWRDVAREYLPKEQMARGVPSAFINLIRSHYNLHIEPFNRNLKEKAMKNDDESDDEMEELKHKYQHHHGTMRTEIEVPNDKTTEGGEDECPVSMQSGRRRSKNKKASSSRKTLGTSSKKNSTRGRKNKKKAEGDDDDDEDPMDQVFCVACNEGKDEDLLLLCDIDGCNNGRHTYCCDPVLDEVPEGEWRCPKCIESEDAKIGLDWGFYDADTEYNLNSFTEFANKWKCDYFGVKDVSQVSCDAVERSFWKNVISHENPVSVKYGADLITSRVGSGFPRKEDKHTGPDLKLKQQYASHAWNLNNMPVLRESVLSHFNTGISGMMVPWVYVGMCFSTFCWHTEDHWTYSVNYNHFGERKIWYGVGGEDAEKFEDALKKIAPGLTGRQRDLFHHMTTAANPHLLRSLGVPIHSVHQNAGEFVITFPRAYHAGFNEGLNFAEAVNFAPIDWLSKGRECVESYSNVRRYLVFSHDELLFKMVEAMDKLGISMSLATHEELIRIYEKQKMLRELLARLGVSNRQMQQVMFEKIPDEQRSCRFCKTTLFMCALVCNKHKKMTCVEHHDHLCNSCTTKDYRYQYRFELDQLNNMCDELGKRTVNYNGWKEESDEMLEEEGKPKLERIEEFIDSAKQNKYPQTDQVHKLITIRHTAKSAIEKANQLLFKKVRTRTKTRCQRADTRTDTEGVRSLIEQMQAMDCNLTVIIDKLEKWMEQVEMWRNRAKDAIYREQEYSKEEIEKIIEEGDEYDIKLEEIDELRKVIQMKDWSDRARKVTTWKATPDMEKDIDFEYKLRYASSDILSLIRDSPRNPTDGTSKLVFELQQMLRDANTLEVIANNFCENPALDQLQSIWQSLRETDWFYEKYINMVRYEIIHVAKIKSMIDAAIPVLSEFDLKTQLQKIVNVEITLSKAAEISKAFETSKCLNGSEEHLGILDMISTMNAFTQRIAILFKPNNAYHNLFEILSERDDLTPLAEGQTIPLYFQGGAVHPSDEWHQMKEFESLDQIVHHQSSLREMQMRIFEKVKQANSARGLEACSCLGFNKSDDSESTLTCIMCDSEFHVRCCEWSPFLEKLPEGCFLCVRCLRGQRPVIDDVTTALNGTPSGCLETHLVRNLIQKTRGITQNLMEAANKRKSGESSDDICKIALFDWLSCEILNPNGLPKARELISEFYMEYLQKQSSAALELKNRPVRSKPSVSLFDPKITAKRKRPSVSHKETSKKSRKRQSQASPSEYYEDESEFKSCQARACLKPYGDSVNWVMCEAGCKNWFHVICLGFTLREINDMHEYRCSSCLDHADSPTSSVSTD

binding [2]: binds
B5: Probable U2 small nuclear ribonucleoprotein A′ (mog-2) (protein, UniProt Q9BLB6 1-253)
chain: MVRLTTELFAERPQFVNSVNMREINLRGQKIPVIENMGVTRDQFDVIDLTDNDIRKLDNFPTFSRLNTLYLHNNRINYIAPDIATKLPNLKTLALTNNNICELGDIEPLAECKKLEYVTFIGNPITHKDNYRMYMIYKLPTVRVIDFNRVRLTEREAAKKMFKGKSGKKARDAIQKSVHTEDPSEIEPNENSSGGGARLTDEDREKIKEAIKNAKSLSEVNYLQSILASGKVPEKGWNRQMDQNGADGEAMES

binding [2]: binds
B6: E3 ubiquitin-protein ligase siah-1 (siah-1) (protein, UniProt Q965X6 1-419)
chain: MSNRNGGGGGGDYQDVIESLRRTQLIFEEDDNNSSDSAPQANHLSRHQTSNSLVEDMVNHSNGNPPPVPPGITQQQCQIGLTPRMSASPPSAVSTISGTAVLGKTMARVQSNPPGSIPHNTTTTAQGIQSVAPHIPIGGGGATDDSSAEILSVFECPVCLEYMLPPYMQCSSGHLVCSNCRPKLQCCPTCRGPTPSVRNLGLEKIANTVRFPCKFSTSGCPLNFHHADKTEHEELCEFRPYCCPCPGASCKWQGGLSDVMEHLKKIHKSITTLQGEDIVFLATDINLPGAVDWVMMQSCFDYNFMLVLEKQEKYDPAQPTQMFYAVVQLIGSKKEADNFVYRLELSASRRRMSWEATPRSIHEGVVVAIQQSDCLAFDSNAAQLFAENGNLGINVTISRIDTPQRRHPNELENSDLEYD

binding [2]: binds
B7: Pre-mRNA-splicing factor CWC22 homolog (let-858) (protein, UniProt Q17336 1-897)
chain: MSSSRSQSPETPKAASEEREEEEKESSEQPDTPKTSSEKSASRSQSPRESREVSQETETSENQEKIKEKDDGDDQPGTPNSYRSRETSPAPKRSKETRESESPEKSPVRSRSPRRSSARSPSRSPRRRRERSSERKQSEEPAPLPEKKKKEPLDILRTRTGGAYIPPAKLRLMQQQISDKQSEQYQRMNWERMKKKIHGLVNRVNAKNLVQIVRELLQENVIRSKGLLCRDIIQAQAFSPGFSNVYAALAAVINSKFPHVGELLLRRLIVQFKRSFRRNDRGVTVNVIKFIAHLINQQVAHEVLALEIMILMLEEPTDDSVEVAIAFLKECGAKLLEIAPAALNSVYDRLRAILMETERSENALDRRIQYMIETAMQIRKDKFAAYPAVIEDLDLIEEEDQIIHTLNLEDAVDPENGLNVFKLDPEFEKNEEVYEEIRKEIIGNADISDEDGGDELDDEEEGSDVEEAPKKTTEIIDNTDQNLTAFRREVYLTMQSSLDYQEAAHKLLKMKIPDSMQNELCAMLVDCCAQQRTYERFYGMLIERFCRLRLEYQQYFEKLCQDTYSTIHRIDITKLRNLARLIAHLLSTDAIDWKILADMKMTEEDTTSSGRIYIKYIFNELVEAMGMVKLHSRVTDPTLAHCFVGLFPRTNPNSARFSINFFTMIGLGGLTLELREWLAKGLKKKKGMLDQLKAESSSDSSSSSDSSDSSDSSDSDDSSDSSSDSSSSSESEPEPPKKKKKKNSEESSKKKEKENIGRRDRGDKRAERHRDQSVENKDKDRRRRQDSDENRRPERGDDRKDRSKDRRRQDSDDEDRKGRERREDSGERRRGDRDRRDRNKDQEDHREDRRDRSKDREDRRDRRRHDSDDDRKTRRDRSEERGGRRREVESDDRRRRR

binding [2]: binds
B8: Small nuclear ribonucleoprotein Sm D3 (snr-1) (protein, UniProt Q17348 1-136)
chain: MTSVGVPIKILHEAEGHMVTLETVTGEVYRGKLSEAEDNMNCQLAETVVTFRDGRSHQLDNVFIRGNKIRFMILPDMLKNAPMFKNIGRAQKGAIGMGLGGLDQRGRGRGTAFRRPMGRGGPRGMSRPGGAPTFRG

binding [2]: binds
B9: Probable small nuclear ribonucleoprotein E (snr-6) (protein, UniProt Q9XTU6 1-90)
chain: MSTRKLNKVMVQPVNLIFRYLQNRTRVQIWLYEDVTHRLEGYIIGFDEFMNVVFDEAEEVNMKTKGRNKIGRILLKGDNITLIHAAQQEA

— PMC3675011
